# Results published in the supplement of paper PMC12067093, “Discovery and optimisation of a covalent ligand for TRIM25 and its application to targeted protein ubiquitination” (Chemical Science, 2025).
# The chains behind the UniProt entries cited, without tags or fusion partners. Where a name states a change or a piece, a line headed by the entry shows the natural chain unless it says otherwise.
# UniProt Q92785, whole entry, looked up: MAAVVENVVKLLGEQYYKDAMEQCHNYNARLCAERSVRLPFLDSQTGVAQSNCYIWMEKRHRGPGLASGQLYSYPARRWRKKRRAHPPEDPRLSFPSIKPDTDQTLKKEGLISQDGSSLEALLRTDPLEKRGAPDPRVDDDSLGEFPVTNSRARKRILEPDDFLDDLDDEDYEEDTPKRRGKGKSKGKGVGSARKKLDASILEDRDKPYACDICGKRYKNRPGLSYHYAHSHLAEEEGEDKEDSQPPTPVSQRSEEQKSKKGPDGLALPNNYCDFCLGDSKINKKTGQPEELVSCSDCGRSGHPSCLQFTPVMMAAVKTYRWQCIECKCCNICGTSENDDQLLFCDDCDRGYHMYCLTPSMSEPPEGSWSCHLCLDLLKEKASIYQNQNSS
# UniProt Q14204, whole entry, looked up: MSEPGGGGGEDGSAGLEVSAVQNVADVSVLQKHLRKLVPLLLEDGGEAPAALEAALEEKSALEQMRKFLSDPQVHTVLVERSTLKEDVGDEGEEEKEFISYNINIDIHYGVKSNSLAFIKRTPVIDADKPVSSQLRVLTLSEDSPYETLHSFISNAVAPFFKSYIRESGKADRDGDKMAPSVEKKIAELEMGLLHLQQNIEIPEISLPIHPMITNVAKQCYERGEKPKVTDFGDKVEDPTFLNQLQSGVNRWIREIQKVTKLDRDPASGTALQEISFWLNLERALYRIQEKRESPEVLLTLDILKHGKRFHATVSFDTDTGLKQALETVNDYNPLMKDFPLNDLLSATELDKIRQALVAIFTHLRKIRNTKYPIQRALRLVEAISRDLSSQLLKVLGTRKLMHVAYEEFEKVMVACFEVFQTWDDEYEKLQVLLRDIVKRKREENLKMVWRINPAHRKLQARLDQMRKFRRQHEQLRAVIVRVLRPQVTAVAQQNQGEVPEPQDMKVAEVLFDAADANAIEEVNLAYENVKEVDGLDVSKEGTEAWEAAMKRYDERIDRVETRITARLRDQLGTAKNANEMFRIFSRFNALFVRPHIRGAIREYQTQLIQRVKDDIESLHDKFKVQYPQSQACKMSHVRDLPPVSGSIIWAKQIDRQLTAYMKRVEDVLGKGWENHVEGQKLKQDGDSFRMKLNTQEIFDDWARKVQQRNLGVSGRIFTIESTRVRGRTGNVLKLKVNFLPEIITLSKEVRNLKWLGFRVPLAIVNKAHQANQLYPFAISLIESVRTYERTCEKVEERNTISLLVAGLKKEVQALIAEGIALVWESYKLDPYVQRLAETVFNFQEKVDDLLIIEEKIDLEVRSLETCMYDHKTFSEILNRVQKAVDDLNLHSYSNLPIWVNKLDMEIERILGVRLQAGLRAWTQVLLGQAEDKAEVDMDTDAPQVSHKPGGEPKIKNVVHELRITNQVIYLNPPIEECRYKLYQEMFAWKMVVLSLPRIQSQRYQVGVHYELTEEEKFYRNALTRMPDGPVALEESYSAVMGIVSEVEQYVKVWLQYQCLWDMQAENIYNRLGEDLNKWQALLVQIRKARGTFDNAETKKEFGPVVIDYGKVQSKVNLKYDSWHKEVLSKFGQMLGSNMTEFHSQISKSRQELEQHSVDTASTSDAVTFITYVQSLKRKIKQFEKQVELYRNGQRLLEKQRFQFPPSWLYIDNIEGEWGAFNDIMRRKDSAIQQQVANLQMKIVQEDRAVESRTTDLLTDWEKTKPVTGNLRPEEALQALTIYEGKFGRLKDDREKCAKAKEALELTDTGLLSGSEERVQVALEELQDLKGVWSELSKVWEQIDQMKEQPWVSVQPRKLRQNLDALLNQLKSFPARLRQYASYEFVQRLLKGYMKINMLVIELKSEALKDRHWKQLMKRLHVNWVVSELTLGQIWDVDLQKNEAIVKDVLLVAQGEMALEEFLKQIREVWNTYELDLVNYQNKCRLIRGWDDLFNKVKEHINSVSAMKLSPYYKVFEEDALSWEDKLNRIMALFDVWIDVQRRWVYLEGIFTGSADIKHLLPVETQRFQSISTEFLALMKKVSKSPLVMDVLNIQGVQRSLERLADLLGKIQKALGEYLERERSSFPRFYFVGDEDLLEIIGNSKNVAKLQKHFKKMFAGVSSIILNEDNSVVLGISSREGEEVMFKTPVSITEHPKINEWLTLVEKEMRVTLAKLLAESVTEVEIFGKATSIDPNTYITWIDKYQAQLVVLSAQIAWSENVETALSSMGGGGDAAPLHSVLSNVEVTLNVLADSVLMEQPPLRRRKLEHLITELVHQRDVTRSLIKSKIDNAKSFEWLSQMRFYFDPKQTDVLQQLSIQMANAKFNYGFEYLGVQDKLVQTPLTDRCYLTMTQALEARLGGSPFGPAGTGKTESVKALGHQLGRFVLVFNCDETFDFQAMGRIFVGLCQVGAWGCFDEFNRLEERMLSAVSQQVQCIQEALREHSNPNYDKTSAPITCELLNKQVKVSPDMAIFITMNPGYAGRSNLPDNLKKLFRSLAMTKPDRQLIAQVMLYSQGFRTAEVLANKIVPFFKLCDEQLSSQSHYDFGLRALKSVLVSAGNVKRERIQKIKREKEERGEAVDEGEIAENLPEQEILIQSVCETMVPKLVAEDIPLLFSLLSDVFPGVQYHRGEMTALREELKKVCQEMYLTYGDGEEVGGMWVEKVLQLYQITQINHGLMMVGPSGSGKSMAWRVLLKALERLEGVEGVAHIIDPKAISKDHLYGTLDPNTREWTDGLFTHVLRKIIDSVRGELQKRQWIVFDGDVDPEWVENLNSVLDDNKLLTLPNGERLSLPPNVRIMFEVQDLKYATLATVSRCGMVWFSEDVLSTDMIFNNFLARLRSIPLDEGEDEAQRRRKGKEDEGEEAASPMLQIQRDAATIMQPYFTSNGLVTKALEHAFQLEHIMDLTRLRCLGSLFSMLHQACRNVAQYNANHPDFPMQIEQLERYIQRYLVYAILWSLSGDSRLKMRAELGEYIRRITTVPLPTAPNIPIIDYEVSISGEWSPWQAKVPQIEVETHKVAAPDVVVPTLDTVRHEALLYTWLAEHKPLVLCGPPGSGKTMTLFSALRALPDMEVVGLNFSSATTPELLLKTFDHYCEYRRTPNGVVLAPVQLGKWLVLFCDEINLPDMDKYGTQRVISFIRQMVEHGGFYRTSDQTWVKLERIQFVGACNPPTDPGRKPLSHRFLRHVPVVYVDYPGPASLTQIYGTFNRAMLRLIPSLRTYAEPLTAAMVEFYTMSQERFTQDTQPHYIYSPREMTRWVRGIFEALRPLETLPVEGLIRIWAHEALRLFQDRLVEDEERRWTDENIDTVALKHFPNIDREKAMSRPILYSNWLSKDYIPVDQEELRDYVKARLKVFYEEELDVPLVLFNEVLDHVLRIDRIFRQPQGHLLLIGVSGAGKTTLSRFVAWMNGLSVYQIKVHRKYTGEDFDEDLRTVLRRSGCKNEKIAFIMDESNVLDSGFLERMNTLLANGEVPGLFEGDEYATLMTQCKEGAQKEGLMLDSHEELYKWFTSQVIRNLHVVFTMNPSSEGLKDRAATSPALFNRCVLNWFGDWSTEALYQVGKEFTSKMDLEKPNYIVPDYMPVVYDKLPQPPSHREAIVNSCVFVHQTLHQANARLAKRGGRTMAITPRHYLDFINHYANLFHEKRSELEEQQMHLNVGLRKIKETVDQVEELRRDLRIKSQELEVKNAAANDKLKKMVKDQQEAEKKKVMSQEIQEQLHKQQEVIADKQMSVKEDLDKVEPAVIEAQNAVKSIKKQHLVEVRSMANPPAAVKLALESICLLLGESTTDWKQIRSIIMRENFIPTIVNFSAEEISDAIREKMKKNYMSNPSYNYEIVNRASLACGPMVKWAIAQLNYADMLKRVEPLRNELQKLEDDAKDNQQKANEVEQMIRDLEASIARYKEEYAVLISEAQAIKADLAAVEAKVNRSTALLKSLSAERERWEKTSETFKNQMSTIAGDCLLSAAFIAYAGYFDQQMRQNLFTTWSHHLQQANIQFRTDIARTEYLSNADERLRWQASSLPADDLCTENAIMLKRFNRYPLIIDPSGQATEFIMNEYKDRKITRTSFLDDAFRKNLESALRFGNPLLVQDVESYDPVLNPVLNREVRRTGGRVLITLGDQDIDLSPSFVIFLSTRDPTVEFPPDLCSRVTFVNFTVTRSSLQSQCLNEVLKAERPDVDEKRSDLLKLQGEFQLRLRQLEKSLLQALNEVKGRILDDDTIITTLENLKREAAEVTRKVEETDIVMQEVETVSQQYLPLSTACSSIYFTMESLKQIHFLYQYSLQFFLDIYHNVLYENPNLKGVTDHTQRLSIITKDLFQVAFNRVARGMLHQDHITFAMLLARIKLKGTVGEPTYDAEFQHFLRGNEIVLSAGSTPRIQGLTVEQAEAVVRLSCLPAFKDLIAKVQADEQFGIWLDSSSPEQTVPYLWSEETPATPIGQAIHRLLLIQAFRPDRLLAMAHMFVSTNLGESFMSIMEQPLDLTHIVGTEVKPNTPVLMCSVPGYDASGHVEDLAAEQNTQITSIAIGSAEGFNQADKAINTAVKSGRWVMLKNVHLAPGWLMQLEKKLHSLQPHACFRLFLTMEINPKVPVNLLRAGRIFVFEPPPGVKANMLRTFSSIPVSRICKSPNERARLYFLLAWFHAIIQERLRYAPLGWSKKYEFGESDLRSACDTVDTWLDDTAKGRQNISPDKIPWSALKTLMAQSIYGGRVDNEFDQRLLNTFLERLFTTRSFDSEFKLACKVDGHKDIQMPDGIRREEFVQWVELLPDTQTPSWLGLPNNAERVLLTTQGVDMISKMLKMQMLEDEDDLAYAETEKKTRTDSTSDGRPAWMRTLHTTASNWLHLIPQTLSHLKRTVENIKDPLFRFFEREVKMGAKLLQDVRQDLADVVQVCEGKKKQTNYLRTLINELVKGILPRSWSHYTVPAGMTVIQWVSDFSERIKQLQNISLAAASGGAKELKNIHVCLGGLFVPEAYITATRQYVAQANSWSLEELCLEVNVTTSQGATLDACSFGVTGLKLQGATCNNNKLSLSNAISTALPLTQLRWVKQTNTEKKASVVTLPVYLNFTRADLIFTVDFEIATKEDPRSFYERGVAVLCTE
# UniProt Q7L591: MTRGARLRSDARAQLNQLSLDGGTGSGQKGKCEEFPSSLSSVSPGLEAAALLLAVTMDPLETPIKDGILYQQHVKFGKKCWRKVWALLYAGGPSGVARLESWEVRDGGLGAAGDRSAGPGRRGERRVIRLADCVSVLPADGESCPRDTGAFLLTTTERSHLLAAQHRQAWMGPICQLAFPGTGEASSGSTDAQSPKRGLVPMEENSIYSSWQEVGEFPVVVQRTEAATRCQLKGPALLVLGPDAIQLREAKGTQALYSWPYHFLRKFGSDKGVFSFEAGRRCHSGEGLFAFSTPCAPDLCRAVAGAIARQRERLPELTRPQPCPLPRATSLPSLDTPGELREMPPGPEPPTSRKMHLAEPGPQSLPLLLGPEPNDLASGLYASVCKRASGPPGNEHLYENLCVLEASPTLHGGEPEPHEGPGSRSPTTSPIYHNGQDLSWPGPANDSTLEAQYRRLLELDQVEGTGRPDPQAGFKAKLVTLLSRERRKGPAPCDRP
# UniProt Q9BVC3, whole entry: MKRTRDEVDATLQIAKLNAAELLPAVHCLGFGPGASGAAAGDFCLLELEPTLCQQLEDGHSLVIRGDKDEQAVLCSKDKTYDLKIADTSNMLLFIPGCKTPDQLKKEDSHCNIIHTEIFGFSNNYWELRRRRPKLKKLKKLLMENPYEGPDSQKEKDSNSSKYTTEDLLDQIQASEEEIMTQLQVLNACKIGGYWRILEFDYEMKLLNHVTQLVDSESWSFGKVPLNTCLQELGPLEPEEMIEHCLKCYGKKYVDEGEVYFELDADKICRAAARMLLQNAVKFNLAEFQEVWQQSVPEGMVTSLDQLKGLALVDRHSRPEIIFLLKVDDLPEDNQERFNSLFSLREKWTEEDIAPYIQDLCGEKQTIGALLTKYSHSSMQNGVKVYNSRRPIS
# UniProt Q99704: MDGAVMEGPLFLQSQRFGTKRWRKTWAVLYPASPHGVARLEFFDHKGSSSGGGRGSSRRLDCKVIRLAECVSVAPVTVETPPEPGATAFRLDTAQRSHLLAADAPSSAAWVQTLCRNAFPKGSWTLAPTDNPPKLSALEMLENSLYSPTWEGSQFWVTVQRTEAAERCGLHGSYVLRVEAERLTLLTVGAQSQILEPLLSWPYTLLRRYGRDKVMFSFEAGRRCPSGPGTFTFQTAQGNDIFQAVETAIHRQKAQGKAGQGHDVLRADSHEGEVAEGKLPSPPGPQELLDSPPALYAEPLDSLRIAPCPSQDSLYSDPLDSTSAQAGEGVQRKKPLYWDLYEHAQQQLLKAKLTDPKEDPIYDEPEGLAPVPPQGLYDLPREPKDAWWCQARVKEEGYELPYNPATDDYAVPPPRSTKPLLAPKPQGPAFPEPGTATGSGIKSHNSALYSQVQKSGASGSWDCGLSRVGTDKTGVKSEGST
# UniProt P51452: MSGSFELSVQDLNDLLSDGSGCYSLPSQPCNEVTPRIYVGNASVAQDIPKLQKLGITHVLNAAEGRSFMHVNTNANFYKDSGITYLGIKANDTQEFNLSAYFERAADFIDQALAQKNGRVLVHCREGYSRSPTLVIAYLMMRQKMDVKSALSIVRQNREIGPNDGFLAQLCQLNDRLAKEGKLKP
# Some of the results follow.
# Compound: CC1Cc2ccccc2N1C(=O)C1CCCN(C1)C(=O)CCl (mixture of isomers) [TRIM25 ligand 11 (diastereomer mixture)]
# Test: probe-labelled cysteine peptide fold change vs DMSO (competition) (log2 fold change); higher = less target engagement (more negative = stronger competition)
# Settings: THP-1, incubation time: 4 h
# 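Further: competitive chemoproteomic profiling in live THP-1 cells with an iodoacetamide desthiobiotin (IA-DTB) probe, comparing probe-labelled peptide intensities in compound-treated cells against DMSO-treated controls.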
Target,probe-labelled cysteine peptide fold change (10 µM),probe-labelled cysteine peptide fold change (50 µM)
DPF2_Q92785_295_TGQPEELVSCSDCGR (UniProt Q92785),-0.0731,-0.128
DYNC1H1_Q14204_2594_HEALLYTWLAEHKPLVLCGPPGSGK (UniProt Q14204),-0.104,-0.0762
DYNC1I2_Q13409_484_AGISEMFEGHQGPITGIHCHAAVGAVDFSHLFVTSSFDWTVK (UniProt Q13409),0.401,0.0339
DOK3_Q7L591_493_KGPAPCDRP (UniProt Q7L591),-0.0118,0.0304
DOCK8_Q8NF50_259_QAELFALYPSVDEEDAVEIRPVPECPK (UniProt Q8NF50),0.0341,-0.0378
DUS2_Q9NX74_475_AQELAQPGDLCK (UniProt Q9NX74),0.031,-0.0911
DSTN_P60981_46_KCIIVEEGK (UniProt P60981),-0.105,-0.13
DSCC1_Q9BVC3_111_KEDSHCNIIHTEIFGFSNNYWELR (UniProt Q9BVC3),0.0847,-0.0429
DYNC1H1_Q14204_3693_DPTVEFPPDLCSR (UniProt Q14204),0.334,0.235
DOCK8_Q8NF50_685_LQTGSYCLPVALEK (UniProt Q8NF50),-0.0908,-0.032
DOK3_Q7L591_323_ERLPELTRPQPCPLPR (UniProt Q7L591),-0.123,-0.0699
DOCK11_Q5JSL3_1204_DEFPCGFTSPANR (UniProt Q5JSL3),0.12,-0.196
DOK3_Q7L591_133+144_LADCVSVLPADGESCPR (UniProt Q7L591),-0.268,-0.159
DOCK10_Q96BY6_1103_FDFLQEVCQHEHFIPLCLPIR (UniProt Q96BY6),0.128,-0.111
DOK1_Q99704_224_RCPSGPGTFTFQTAQGNDIFQAVETAIHR (UniProt Q99704),-0.243,-0.147
DUSP19_Q8WTR2_188_NARPSICPNSGFMEQLR (UniProt Q8WTR2),-0.0315,-0.0499
DST_Q03001_5394_AAQLQEALLHCGR (UniProt Q03001),0.0974,0.0188
DNMT1_P26358_762_VCIDAETLEVGDCVSVIPDDSSK (UniProt P26358),0.169,0.0555
DNMT1_P26358_691_CPNMAMK (UniProt P26358),-0.25,-0.37

Target,probe-labelled cysteine peptide fold change (10 µM),probe-labelled cysteine peptide fold change (50 µM)
DYNC1H1_Q14204_1999_TSAPITCELLNK (UniProt Q14204),-0.0212,-0.0602
DOCK2_Q92608_1655_QMSIISLASMNSDCSTPSKPTSESFDLELASPK (UniProt Q92608),-0.0892,-0.279
DPP9_Q86TI2_550_LTTPGFSHSCSMSQNFDMFVSHYSSVSTPPCVHVYK (UniProt Q86TI2),0.432,0.156
DUS1L_Q6P1R4_146_LSVPVTCK (UniProt Q6P1R4),0.0234,0.101
DPH5_Q9H2P9_119_VIHNASIMNAVGCCGLQLYK (UniProt Q9H2P9),0.113,0.187
DOP1A_Q5JWR5_2127_EAFDLFMDPSFFQMDASCVNHWR (UniProt Q5JWR5),-0.177,0.066
DOCK10_Q96BY6_1310_TDNCEK (UniProt Q96BY6),-0.0525,0.0605
DYNC1H1_Q14204_1888_CYLTMTQALEAR (UniProt Q14204),0.0467,-0.173
DOK1_Q99704_224_CPSGPGTFTFQTAQGNDIFQAVETAIHR (UniProt Q99704),0.0799,0.0553
DTWD2_Q8NBA8_143_FSEERDPELSTVCR (UniProt Q8NBA8),0.148,0.0336
DPM3_Q9P2X0_67_VATFHDCEDAAR (UniProt Q9P2X0),0.149,0.131
DOCK10_Q96BY6_2164_RGVDQTCTR (UniProt Q96BY6),-0.0636,-0.163
DPP9_Q86TI2_601_FWASMMEAASCPPDYVPPEIFHFHTR (UniProt Q86TI2),-0.336,-0.15
DOT1L_Q8TEK3_1397_EAGEGGLPLCGPTDK (UniProt Q8TEK3),-0.0423,-0.331
DSN1_Q9H410_191_CFEDSNGK (UniProt Q9H410),0.115,0.0971
DOCK8_Q8NF50_846_NCLLASYVHYVFR (UniProt Q8NF50),0.0759,0.189
DPYD_Q12882_671_SEDSGADALELNLSCPHGMGER (UniProt Q12882),-0.209,0.0557
DUSP3_P51452_171_EIGPNDGFLAQLCQLNDR (UniProt P51452),-0.408,-0.0736
